At least one compound was matched to its structure with a doubt left.
Columns and labels:
[1] = system: U251MG glioblastoma cells; test: CyQuant cell viability/proliferation assay, U251MG; assay type: cell-based, human; design: key to the marks not given beside the values; conditions: Table 1 grade; Table 1/FIG. 2 compound numbering
Experimental: The cell viability assay was performed as previously reported (Zhang X, et al. (2010)). Briefly, a 10 millimolar concentration stock solution in dimethylsulfoxide (DMSO) of the tested molecule was first prepared. Next, the stock solution was diluted down to various working solutions in water. Thus, a formulation of the tested compound in a DMSO/water mixture was used to test for cell viability. (A novel small-molecule disrupts STAT3 SH2 domainphosphotyrosine interactions and STAT3-dependent tumor processes, Biochem Pharmacol 79:1398-1409; Zhao W, Jaganathan S, & Turkson J (2010), A cell-permeable STAT3 SH2 domain mimetic inhibits STAT3 activation and induces antitumor cell effects in vitro. J Biol Chem. 285:35855-35865). Cells (U251MG, MDA-MB-231 or NIH3T3) were obtained from ATCC (Manassas, Va.) and were cultured in 96-well plates at 2,000 cells per well for 24 h and were treated with compounds (5 micromolar concentration) for 72 h. Cell viabilty was determined using CyQuant assay, according to the manufacturer's (Invitrogen, CA, USA) instructions. Relative viability of the treated cells was normalized to the DMSO-treated control cells.

[2] = system: pY705STAT3 in U251MG or MDA-MB-231 cells; test: Immunoblotting of pY705STAT3 in treated tumor cells; conditions: 5 micromolar, 0-24 h, Table 1/FIG. 2 numbering

Row | SMILES | Activity against U251 [1] | Effect on pY705STAT3 / STAT3 activity (immunoblot), in words [2]
1 | CC=C(C)C(=O)OC1CC(C)C2(O)CCC(C)(C=C3OC(=O)C(COC(C)=O)=C31)O2 (centres unmarked) [Compound 20] | ++ | 
2 | CC(=O)OCC1=C2/C(=C\C3(C)CCC(O)(O3)[C@H](C)C[C@@H]2O)OC1=O (stereo partly drawn) [Compound 11, ((4S,6R,E)-4,7-dihydroxy-6,10-dimethyl-2-oxo-2,4,5,6,7,8,9,10-octahydro-7,10-epoxycyclodeca[b]furan-3-yl)methyl acetate] |  | showed little effects on pY705STAT3

From patent US10800790B2, “Sesquiterpenoid STAT3 inhibitors” (University of Hawaii, priority 2013, dated 2020)
